Source: PubChem BioAssay AID445 (National Center for Advancing Translational Sciences (NCATS), 2006)
The list shows a part of the results. The main result of the screen is listed elsewhere. These columns were measured beside it and carry no call. Compounds called inactive in the main read-out are mostly missing here. Words in brackets tell the shape of the fitted curve; partial curves, single points and poor fits give uncertain potencies.

experiment: IkB Signaling; details: ABC-DLBCL IkBa-CBG/CBR dual luciferase ratio (green luciferase fused to IkBa over red control in OCI-Ly3 lymphoma cells), 4 h; measured here: control luc red channel unless noted
Procedure, shortened: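 Luminescence ratio of IκBα-fused green versus native red beetle luciferase in OCI-Ly3 cells, 4 h post-doxycycline with compound; red signal alone, scaled from basal (0%) to zero light (-100%), flagged nonspecific or cytotoxic effects.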

Compound	AC50
CN=C(N)NCCC[C@H](N)C(=O)O	2 µM [rising, full curve, poor fit]
O=C1c2[nH]nc(-c3ccccc3O)c2C(c2cccc(Cl)c2)N1Cc1ccco1 (stereo not drawn)	20 µM [falling, partial curve]
CCN(CC)c1ccc(NC(=O)c2cncc(Br)c2)cc1	12.6 µM [falling, partial curve]
COc1ccc(Cl)cc1NC(=O)CCCn1c(C)c2cnn(-c3ccccc3)c(=O)c2c1C	0.316 µM [falling, full curve]
O=c1n(Cc2ccccc2)c2cc(Cl)cnc2n1Cc1ccccc1	15.8 µM [falling, partial curve]
O=c1c2c(nc3c(-c4ccc(Cl)cc4)c[nH]n13)CCCC2	31.6 µM [falling, partial curve]
COc1ccc(-c2noc(N3CCC(C(=O)Nc4ccc(C)c(F)c4)CC3)n2)cc1OC	5.01 µM [falling, partial curve]
CCOC(=O)c1c(-c2ccc(C)cc2C)csc1NC(=O)CSc1nnnn1C	39.8 µM [falling, single point]
Cc1ccc(NC(=O)CC2Nc3cccc4cccc(c34)NC2=O)cc1 (stereo not drawn)	25.1 µM [falling, partial curve]
COc1ccc(N(Cc2ccccc2)C(=O)c2nc(SC)ncc2Cl)cc1	12.6 µM [falling, partial curve]
CCOc1ccccc1-n1c(SCC(N)=O)nnc1-c1ccco1	25.1 µM [falling, partial curve]
Cn1c(=O)c2c(-c3cccc(Br)c3)n(C(C)(C)CO)cc2n(C)c1=O	39.8 µM [falling, single point]
Cc1cc2cc(CCNC(=O)c3c(-c4ccccc4Cl)noc3C)c(=O)[nH]c2cc1C	10 µM [falling, partial curve]
CN(C)c1ccc(CNC(=O)c2cccc(NC(=O)N3CCSc4ncccc43)c2)cc1	12.6 µM [falling, partial curve]
O=C1N(Cc2ccccc2)c2ccc(Cl)cc2C1(O)c1c[nH]c2ccccc12 (stereo not drawn)	20 µM [falling, partial curve]
Cc1cc2nc(-c3ccc(OCc4ccccc4Cl)cc3)cc(C(F)(F)F)n2n1	31.6 µM [falling, single point]
COc1ccccc1NC(=O)Cn1c(SCC(=O)N(C)c2ccccc2)nc2ccccc21	20 µM [falling, single point]
COc1cccc2c1cc1c(=O)n(CC(=O)N3CCN(c4ccc(Cl)cc4)CC3)nc(C)n12	5.01 µM [rising, full curve]

Some of these compounds in order of heavy-atom count, low to high:
Compound	AC50
CCOC(=O)c1c(-c2ccc(C)cc2C)csc1NC(=O)CSc1nnnn1C	39.8 µM [falling, single point]
CN(C)c1ccc(CNC(=O)c2cccc(NC(=O)N3CCSc4ncccc43)c2)cc1	12.6 µM [falling, partial curve]
COc1cccc2c1cc1c(=O)n(CC(=O)N3CCN(c4ccc(Cl)cc4)CC3)nc(C)n12	5.01 µM [rising, full curve]
